Positions count from the first letter of the chain named. No constants are given. Whether binding was seen depends on the method and setting. Binding seen in cells or lysates may run through a third protein. Binding calls can cover weak binding; strength is not graded here.
Key:
[1] = biological target: T1, human corin mutant N1022Q (human) (UniProt Q9Y5Q5); experiment: co-IP; lysates of transfected HEK293 cells immunoprecipitated with anti-V5 antibody and protein A-Sepharose; co-precipitated endogenous chaperones detected by western blotting and densitometry; cells without or with DNJ (2 mM, 37°C, 24-48 hr)
T1 sequence: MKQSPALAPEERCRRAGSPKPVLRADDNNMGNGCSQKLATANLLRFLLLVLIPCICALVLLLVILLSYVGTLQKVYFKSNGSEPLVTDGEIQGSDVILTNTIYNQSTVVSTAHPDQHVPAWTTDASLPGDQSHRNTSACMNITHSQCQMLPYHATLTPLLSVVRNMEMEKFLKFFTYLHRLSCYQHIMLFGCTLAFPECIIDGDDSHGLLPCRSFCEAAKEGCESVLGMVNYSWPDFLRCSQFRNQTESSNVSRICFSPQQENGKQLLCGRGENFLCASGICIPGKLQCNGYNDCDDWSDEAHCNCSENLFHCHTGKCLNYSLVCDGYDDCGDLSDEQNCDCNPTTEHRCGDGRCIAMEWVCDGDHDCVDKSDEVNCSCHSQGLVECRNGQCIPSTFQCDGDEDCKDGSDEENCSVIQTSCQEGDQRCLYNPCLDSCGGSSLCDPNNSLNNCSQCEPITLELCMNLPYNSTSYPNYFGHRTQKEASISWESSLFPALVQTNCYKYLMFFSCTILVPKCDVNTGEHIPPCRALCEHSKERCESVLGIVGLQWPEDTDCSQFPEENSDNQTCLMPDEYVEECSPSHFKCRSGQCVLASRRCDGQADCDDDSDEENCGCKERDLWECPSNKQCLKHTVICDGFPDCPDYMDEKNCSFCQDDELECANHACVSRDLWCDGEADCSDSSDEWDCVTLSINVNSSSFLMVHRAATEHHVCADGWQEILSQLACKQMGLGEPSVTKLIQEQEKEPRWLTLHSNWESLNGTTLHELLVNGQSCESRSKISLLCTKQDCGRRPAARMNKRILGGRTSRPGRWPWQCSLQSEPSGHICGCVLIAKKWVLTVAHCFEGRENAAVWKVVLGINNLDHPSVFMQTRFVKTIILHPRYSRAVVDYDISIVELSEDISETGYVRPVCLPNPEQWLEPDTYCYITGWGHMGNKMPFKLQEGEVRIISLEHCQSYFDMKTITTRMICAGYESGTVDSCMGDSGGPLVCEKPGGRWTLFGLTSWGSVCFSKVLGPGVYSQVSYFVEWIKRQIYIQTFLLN

human corin WT (human) = biological target: T2, human corin WT (human) (UniProt Q9Y5Q5); experiment: as above
T2 sequence: T1 sequence with Q1022N

binding [1]: binds
binding (human corin WT (human)): binds
Substance: HSP70 (human (endogenous in HEK293))

Reference: paper PMC6021170
